# In the supplement of paper PMC6411743:
# The chains behind the UniProt entries cited, without tags or fusion partners. Where a name states a change or a piece, a line headed by the entry shows the natural chain unless it says otherwise.
# UniProt Q96A47: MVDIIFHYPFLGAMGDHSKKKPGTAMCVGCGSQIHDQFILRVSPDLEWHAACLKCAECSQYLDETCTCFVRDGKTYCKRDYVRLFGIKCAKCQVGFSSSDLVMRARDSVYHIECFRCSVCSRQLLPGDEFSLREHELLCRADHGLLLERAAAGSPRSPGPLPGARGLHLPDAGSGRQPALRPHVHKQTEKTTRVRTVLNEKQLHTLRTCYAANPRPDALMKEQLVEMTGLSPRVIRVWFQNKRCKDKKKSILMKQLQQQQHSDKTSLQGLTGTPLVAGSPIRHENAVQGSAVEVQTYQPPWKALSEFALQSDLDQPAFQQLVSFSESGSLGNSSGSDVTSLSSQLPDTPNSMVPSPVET
# UniProt Q8WZ82: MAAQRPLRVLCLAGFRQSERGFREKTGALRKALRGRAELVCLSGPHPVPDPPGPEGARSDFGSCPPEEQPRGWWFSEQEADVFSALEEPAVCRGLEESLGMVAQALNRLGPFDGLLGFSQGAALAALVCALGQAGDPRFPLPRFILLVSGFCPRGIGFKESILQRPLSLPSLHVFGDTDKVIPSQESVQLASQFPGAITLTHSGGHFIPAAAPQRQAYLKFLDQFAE
# UniProt Q96GC9: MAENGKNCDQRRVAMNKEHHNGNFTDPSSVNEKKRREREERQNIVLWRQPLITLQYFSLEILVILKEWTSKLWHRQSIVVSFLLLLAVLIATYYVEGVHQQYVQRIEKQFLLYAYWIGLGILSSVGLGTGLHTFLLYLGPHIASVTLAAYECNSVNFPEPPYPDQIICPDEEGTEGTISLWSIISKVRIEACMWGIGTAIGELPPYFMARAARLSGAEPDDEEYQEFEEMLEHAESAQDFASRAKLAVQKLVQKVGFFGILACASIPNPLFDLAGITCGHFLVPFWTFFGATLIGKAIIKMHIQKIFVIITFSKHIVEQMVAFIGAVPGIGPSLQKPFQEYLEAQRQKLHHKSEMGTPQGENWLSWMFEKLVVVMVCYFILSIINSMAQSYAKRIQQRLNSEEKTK
# UniProt Q8WY22: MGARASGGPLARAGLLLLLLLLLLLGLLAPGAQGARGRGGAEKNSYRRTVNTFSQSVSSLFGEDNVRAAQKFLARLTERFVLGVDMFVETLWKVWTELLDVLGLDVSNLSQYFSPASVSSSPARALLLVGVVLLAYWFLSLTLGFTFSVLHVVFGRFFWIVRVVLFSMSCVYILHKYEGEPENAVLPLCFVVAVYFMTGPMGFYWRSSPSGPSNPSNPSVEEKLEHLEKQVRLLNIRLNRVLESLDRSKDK
# ± gives the standard deviation of the averaged measurements. This is one part of the list.
# Compound: Nc1nc2c(ncn2[C@@H]2O[C@H](COP(=O)(O)OP(=O)(O)OP(=O)(O)O)[C@@H](O)[C@H]2O)c(=O)[nH]1 [guanosine triphosphate]
# Experiment: NP40-soluble protein abundance relative to vehicle (solubility fold change) (ratio); higher = more soluble protein in presence of GTP
# Experimental: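 Solubility proteome profiling in Jurkat crude lysate. Lysate was treated with Mg-GTP (0.1-10 mM) for 10 min at room temperature and 3 min at 37 °C, then solubilised with 0.8% NP40 and benzonase, followed by ultracentrifugation. Proteins were quantified by TMT10 LC-MS/MS; the value is the NP40-soluble abundance relative to the NP40-processed vehicle, from 3 independent experiments.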
Target,NP40-soluble protein abundance (concentration: 0.1mM),NP40-soluble protein abundance (concentration: 0.5mM),NP40-soluble protein abundance (concentration: 1mM),NP40-soluble protein abundance (concentration: 2mM),NP40-soluble protein abundance (concentration: 4mM),NP40-soluble protein abundance (concentration: 6mM),NP40-soluble protein abundance (concentration: 8mM),NP40-soluble protein abundance (concentration: 10mM)
ISL2 (UniProt Q96A47),1.09 ± 0.037,1.1 ± 0.045,1.17 ± 0.023,1.1 ± 0.063,1.08 ± 0.086,1.06 ± 0.13,1.03 ± 0.017,1.13 ± 0.015
OVCA2 (UniProt Q8WZ82),1.08 ± 0.11,1.04 ± 0.15,1.02 ± 0.17,0.993 ± 0.084,0.985 ± 0.14,1.01 ± 0.16,0.938 ± 0.16,0.868 ± 0.11
UniProt Q96GC9,1.01 ± 0.11,1 ± 0.073,0.787 ± 0.12,0.754 ± 0.13,0.757 ± 0.1,0.687 ± 0.082,0.829 ± 0.12,0.883 ± 0.077
BRI3BP (UniProt Q8WY22),0.974 ± 0.1,0.937 ± 0.079,0.94 ± 0.066,1.07 ± 0.088,1.03 ± 0.031,1.07 ± 0.062,0.927 ± 0.099,1.04 ± 0.03
UniProt Q96K17,0.827 ± 0.043,0.819 ± 0.059,0.986 ± 0.026,0.969 ± 0.049,0.963 ± 0.036,0.983 ± 0.041,0.932 ± 0.1,1.06 ± 0.045
